Assay results from US20180057601A1 (PIERRE FABRE MEDICAMENT, published 2018).
Results are given in words; binding and its absence hold for the method and conditions named. Some binding calls cover weakened binding; strength is not graded here.

Target: T1, Peptide_013
T1 sequence (peptide): CKVCCRDLSGRCVPY
Assay: peptide microarray: immobilized 15-mer peptides, antibody at 100 µg/ml, Cy5 anti-human IgG; signal as ratio to control antibody ch9G4

B1: hz1022C3 (antibody, V domains shown)
VH: QVQLQESGPGLVKPSETLSLTCTVSGFSLDTSGMGVSWIRQPAGKGLEWIGHIYWDDDKRYNPSLKSRVTMSKDTSSNQVSLKLSSVTAADTAVYYCARRSHFGNYYYAMDYWGQGTTVTVSS
VL: DIQMTQSPSSLSASVGDRVTITCRASQDISSYLNWYQQKPGKAPKLLIFYTSRLQSGVPSRFSGSGSGTDFTLTISSLQPEDFATYYCQQGKTLPLTFGGGTKVEIK
notes: also called mAb hz1022C3; anti-ADAM17 mAb (hz1022C3)
For B1, the binding was “binds”.
